Data as given in patent publication US7524495B2, “Inhibition of TACE or amphiregulin for the modulation of EGF receptor signal transactivation” (Max-Planck-Gesellschaft zur Foerderung der Wissenschaften …, priority 2003, dated 2009).
At least one structure is not confirmed: it was looked up by name or label, or the drawing left a doubt.

Columns and labels:
ERK1/2 = assay: ERK/MAPK activation (anti-phospho-ERK immunoblot); type: cell-based, human; details: SCC-9 and SCC-15 cells
Excerpt: (§1) FIG. 2 GPCR stimulation requires AR to trigger EGFR-dependent signals and biological responses. a, Blockade of EGF-like growth factor precursor expression by RNA interference (RNAi). SCC-9 cells were transfected with siRNA for proAR, proHB-EGF or proTGFα cultured for 2 days and analyzed for gene expression by RT-PCR as indicated or b, stimulated with LPA or carbachol and assayed for EGFR tyrosine phosphorylation content. c, Requirement of AR for LPA-induced cell migration. SIRNA-transfected SCC-9 cells were analyzed for transwell migration toward fibronectin as chemoattractant. […] Phosphorylated ERK1/2 was detected by immunoblotting total lysates with anti-phospho-ERK antibody. […] Quantitative analysis of ERK phosphorylation from three independent experiments (mean±s.d.). *, P<0.05 for the difference between LPA vs. inhibitors+LPA. […] Cells were then pulse-labelled with ^3H-thymidine and thymidine incorporation was measured by liquid-scintillation counting. Quantitative analysis from three independent experiments (mean±s.d.). *, P<0.001 for LPA vs. inhibitors+LPA.
Cells were lysed and proteins immunoprecipitated as described (13). […] Phosphotyrosine was detected with the 4G10 monoclonal antibody (UBI, Lake Placid, N.Y.). […]

EGFR = details: reference (13); cited from earlier work
Akt/PKB = Akt/PKB phosphorylation (anti-phospho-Akt immunoblot); type: cell-based, human; details: head and neck cancer cells
proAR = assay: Flow cytometric analysis of cell surface proAR (proAR shedding); type: cell-based, human; details: SCC-9 cells; batimastat 10 μM, PTX 100 ng/mL
Experimental: (§2) FIG. 1 GPCR stimulation of the EGFR Involves a ligand-dependent mechanism and is accompanied by AR release from the cell surface. a, EGFR signal transactivation requires metalloprotease activity and the EGFR extracellular domain. SCC-9 cells were pre-incubated with marimastat (BB2516, 10 μM; 20 min), anti-EGFR antibody ICR-3R (20 μg/mL; 60 min) or PTX (100 ng/mL; 18 h) and treated with LPA (10 μM), carbachol (Car, 1 mM), EGF (7.5 ng/mL) or pervanadate (PV, 1 mM) for 3 min. Following immunoprecipitation (IP) of cell extracts with anti-EGFR antibody proteins were immunoblotted (IB) with anti-phosphotyrosine antibody and re-probed with anti-EGFR antibody. b, Flow cytometric analysis of EGF-like precursor expression. SCC-9 cells were collected and stained for surface HB-EGF, TGFa or AR and analyzed by flow cytometry. Control cells were labelled with FITC-conjugated secondary antibody alone. c, LPA-induced proteolytic processing of proAR. […] Cells were collected and analyzed for cell surface AR density by flow cytometry. d, GPCR-induced proteolytic release of AR. […] Conditioned medium was collected and analyzed for total AR amount by ELISA. […]
ACS analysis was performed as described before (1). […] After washing with PBS, cells were incubated with FITC-conjugated secondary antibody and analyzed on a Becton Dickinson FACScalibur flow cytometer.

SCC-15 cells = assay: 3H-thymidine incorporation assay (DNA synthesis); type: cell-based, human; details: 18 h
Excerpt: as §1
For the ^3H-thymidine incorporation assay (5), SCC-15 cells were seeded into 12-well plates at 3×10^4 cells/well. […] After 18 h cells were pulse-labelled with ^3H-thymidine (1 μCi/ml) for 4 h, and thymidine incorporation was measured by trichloroacetic acid precipitation and subsequent liquid-scintillation counting.

amphiregulin (AR) = assay: AR release into cell culture medium (sandwich ELISA); type: cell-based, human; details: SCC-9 cells; pre-incubation, agonists 120 min
Experimental: as §2
Concentrations of free AR were determined by sandwich ELISA (R&D Systems) using monoclonal anti-AR capture antibody and biotinylated polyclonal detection antibody. […] Values are expressed as mean±s.d. of at least triplicate samples. […]

Row | Compound | LPA-induced ERK activation (ERK1/2) | GPCR-induced transactivation signal in HNSCC cells (EGFR) | Akt/PKB phosphorylation by LPA (effect of inhibitors) (Akt/PKB) | LPA-induced ectodomain cleavage (shedding) of proAR (proAR) | DNA synthesis triggered by LPA (SCC-15 cells) | GPCR- and TPA-induced accumulation of AR in cell culture medium (amphiregulin (AR))
1 | CNC(=O)[C@H](Cc1ccccc1)NC(=O)[C@H](CC(C)C)[C@H](CSc1cccs1)C(=O)NO [batimastat] | prevented | sensitive | abrogated | completely abolished | decreased DNA synthesis by LPA to below basal level | completely prevented
2 | COC[C@H]1OC(=O)c2coc3c2[C@@]1(C)C1=C(C3=O)[C@@H]2CCC(=O)[C@@]2(C)C[C@H]1OC(C)=O [wortmannin] | – | – | sensitive | – | – | –
3 | O=c1cc(N2CCOCC2)oc2c(-c3ccccc3)cccc12 [LY294002] | – | – | sensitive | – | – | –
